Test results taken from the supplement of paper PMC10470496.
Counter-ions that a name gives are not always drawn. Some of the results follow. Single values are uncertain, as repeats are few or missing.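 The three strains are clinical Candida auris isolates from the CDC resistance isolate bank, from clades III, IV and I, grown in RPMI-1640 at 35°C. Growth is background-corrected OD600 relative to vehicle-only wells on the same plate; a hit meant over 50% inhibition in at least two strains plus a plate-corrected B-score above 0.1.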

Key:
Test in all cases: growth relative to vehicle control (OD600 ratio) (fraction); higher = less inhibition
Settings in all cases: 24 h
C. auris AR-384 = test system: C. auris AR-384
C. auris AR-386 = test system: C. auris AR-386
C. auris AR-387 = test system: C. auris AR-387

| SMILES | growth (C. auris AR-384; 1 µM) | growth (C. auris AR-384; 10 µM) | growth (C. auris AR-386; 1 µM) | growth (C. auris AR-386; 10 µM) | growth (C. auris AR-387; 1 µM) | growth (C. auris AR-387; 10 µM) |
| --- | --- | --- | --- | --- | --- | --- |
| C[N+]1(C)CCC(OC(=O)C(O)(c2ccccc2)C2CCCC2)C1 (stereo unspecified) [Glycopyrrolate] | 1.1 | 0.84 | 0.69 | 0.63 | 0.78 | 0.98 |
| CN(C)CCC[C@@]1(c2ccc(F)cc2)OCc2cc(C#N)ccc21 [Escitalopram Oxalate] | 0.84 | 0.79 | 1.21 | 0.78 | 0.65 | 0.7 |
| N#C/C(=C1/SC[C@@H](c2ccc(Cl)cc2Cl)S1)n1ccnc1 [Luliconazole] | 0.85 | 0.68 | 1.23 | 0.68 | 0.65 | 0.14 |
| COc1cccc(CCc2ccccc2OCC(CN(C)C)OC(=O)CCC(=O)O)c1 (stereo unspecified) [Sarpogrelate hydrochloride] | 1.15 | 0.88 | 1.06 | 0.52 | 0.55 | 0.75 |
| CN(C(=O)c1ccc(F)cc1C(F)(F)F)C1CCN(c2nnc(-c3ccnn3C)c3ccccc23)CC1 | 0.87 | 0.66 | 0.94 | 0.64 | 0.79 | 0.68 |
| O=C(O)CCC(=O)c1ccc(-c2ccccc2)cc1 [Fenbufen] | 0.85 | 0.63 | 1.07 | 0.76 | 0.88 | 0.93 |
| Clc1ccc(CCC(Cn2ccnc2)Sc2c(Cl)cccc2Cl)cc1 (stereo unspecified) [Butoconazole nitrate] | 0.38 | 0.08 | 0.16 | 0 | 0.03 | 0.02 |
| NC[C@H]1O[C@H](O[C@H]2[C@H](O)[C@@H](O[C@H]3O[C@H](CO)[C@@H](O)[C@H](N)[C@H]3O)[C@H](N)C[C@@H]2N)[C@H](O)[C@@H](O)[C@@H]1O [Kanamycin sulfate] | 0.88 | 0.61 | 0.82 | 0.6 | 0.8 | 1.12 |
| CCC(C)n1ncn(-c2ccc(N3CCN(c4ccc(OCC5COC(Cn6cncn6)(c6ccc(Cl)cc6Cl)O5)cc4)CC3)cc2)c1=O (stereo unspecified) [Itraconazole] | 0.45 | 0.39 | 0.24 | 0.01 | 0.02 | 0.01 |
| CCCCCC(=O)O[C@]1(C(C)=O)CC[C@H]2[C@@H]3CCC4=CC(=O)CC[C@]4(C)[C@H]3CC[C@@]21C [Hydroxyprogesterone caproate] | 0.99 | 0.88 | 0.55 | 0.88 | 0.89 | 0.8 |
| CN(C)CCC(c1ccc(Br)cc1)c1ccccn1 (stereo unspecified) [Brompheniramine hydrogen maleate] | 0.82 | 0.83 | 0.8 | 0.5 | 0.85 | 0.57 |
| S=c1[nH]cnc2nc[nH]c12 [Mercaptopurine (6-MP)] | 0.96 | 1.37 | 1.25 | 1 | 1.19 | 1.27 |
| NC(=O)CC[C@H](N)C(=O)O [L-Glutamine] | 0.78 | 0.51 | 0.8 | 0.92 | 0.75 | 0.78 |
| Cc1nc(-c2ccc(OCC(C)C)c(C#N)c2)sc1C(=O)O [Febuxostat] | 0.91 | 1.54 | 1.33 | 1.69 | 1.2 | 1.34 |
| CNC(=O)c1ccc(Nc2ncc(C(F)(F)F)c(NCc3nccnc3N(C)S(C)(=O)=O)n2)cc1 | 0.72 | 0.86 | 0.77 | 0.86 | 0.68 | 0.74 |
| CCOC(=O)O[C@]1(C(=O)OCCl)CC[C@H]2[C@@H]3CCC4=CC(=O)C=C[C@]4(C)[C@H]3[C@@H](O)C[C@@]21C [Loteprednol etabonate] | 1.01 | 1.13 | 1.26 | 1.19 | 1.08 | 1.11 |
| COCCCN1CCC(NC(=O)c2cc(Cl)c(N)c3c2OCC3)CC1 [Prucalopride Succinate] | 1.01 | 1.09 | 1.28 | 0.74 | 0.78 | 0.91 |
| Cc1ccccc1C(=O)Nc1ccc(C(=O)N2CCCC(O)c3cc(Cl)ccc32)c(C)c1 (stereo unspecified) [Tolvaptan] | 0.94 | 0.93 | 0.88 | 1.03 | 1.04 | 0.92 |
| Cc1ccc(NC(=O)C2(c3ccc4c(c3)OC(F)(F)O4)CC2)nc1-c1cccc(C(=O)O)c1 [VX-809 (Lumacaftor)] | 1.3 | 1.55 | 1.32 | 0.85 | 0.78 | 0.63 |
| CC[C@H](C)[C@@H]1NC(=O)[C@H](Cc2ccc(O)cc2)NC(=O)[C@@H](N)CSSC[C@@H](C(=O)N2CCC[C@H]2C(=O)N[C@@H](CC(C)C)C(=O)NCC(N)=O)NC(=O)[C@H](CC(N)=O)NC(=O)[C@H](CCC(N)=O)NC1=O [Oxytocin (Syntocinon)] | 0.56 | 0.47 | 0.55 | 0.67 | 0.68 | 0.52 |
| COc1ccc(C(=O)c2ccccc2)c(O)c1 [Oxybenzone] | 0.67 | 0.89 | 1.01 | 0.93 | 0.96 | 0.74 |

Looked up above:
Value for `Clc1ccc(CCC(Cn2ccnc2)Sc2c(Cl)cccc2Cl)cc1` (stereo unspecified) [Butoconazole nitrate] under growth (C. auris AR-386; 10 µM): 0
Value for `N#C/C(=C1/SC[C@@H](c2ccc(Cl)cc2Cl)S1)n1ccnc1` [Luliconazole] under growth (C. auris AR-387; 1 µM): 0.65
